Laboratory results: patent US20250361219A1, “SYSTEMS AND METHODS FOR SEPARATION OF CHEMICAL SPECIES, SUCH AS CANNABINOIDS, USING MULTIPLE LIQUID PHASES” (priority 2022, published 2025)

Experiment: Pilot plant scale 5-stage multi-stage extraction of aldehydes
Conditions: pilot scale 5-stage system, feed at stage 3, 1/4 feed to organic ratio, 2.75/1 aqueous to organic outlet phase ratio

SMILES	Experimental Extraction Efficiency (percentage extracted into the aqueous phase)
CC(C)c1ccc(C=O)cc1 [Cuminaldehyde, cuminaldehyde]	58.8%
CCc1ccc(C=O)cc1 [4-ethylbenzaldehyde]	43.8%
